These are literature values, as cited in article PMC9865396, “The Effect of the Particle Size Reduction on the Biorelevant Solubility and Dissolution of Poorly Soluble Drugs with Different Acid-Base Character” (Pharmaceutics, 2023).

Structures can show the parent of a compound that is named as a salt.

The conditions of the series: cited from earlier work.
With `O=C(O)c1cccnc1Nc1cccc(C(F)(F)F)c1` [NIF original, Niflumic acid], the BCS class entry is listed as “BCS II”.

As for `NS(=O)(=O)c1cc(C(=O)O)c(NCc2ccco2)cc1Cl` [FUR original, furosemide], the BCS class result was “BCS IV”.

With `COc1ccc(Cc2nccc3cc(OC)c(OC)cc23)cc1OC` [PAP original, papaverine hydrochloride], the BCS class entry is “BCS II”.
